Values from PubChem BioAssay AID1224830 (NIAID, 2016)
The whole screen tested about 18,000 reagents; shown is a part drawn at random. About 2,900 of them (16%) count as active. 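Calls are made per well; low scores hint the gene aids the LPS response, high scores that it dampens it.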 Repeated entries: four replicate wells of each siRNA pool. No sequences are given here.

Purpose: 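Genes whose knock-down alters the TNF-alpha reporter response to LPS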 (primary screen)
System: human THP-1 monocytic leukaemia cells, TNF dual-luciferase reporter clone, PMA-differentiated to macrophage-like cells
Reagents: siRNA pool against human genes, 50 nM
Time to read-out: LPS for 4 h, given about 3 days after siRNA transfection
Conditions: bacterial LPS (TLR4 ligand), 10 ng/ml
Detection: 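TNF firefly reporter luminescence divided by renilla, normalised to the plate median, then turned into a robust z-score for each replicate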
Scale: TNF reporter robust z-score: higher = stronger TNF reporter response to LPS
Active means: 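a well is active when its z-score exceeds 2.8 or falls below -1.5; control wells carry no call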

no.	Target gene	TNF reporter robust z-score	call
1	DEPDC4	-1.29	inactive
2	DEPDC4	-0.43	inactive
3	DEPDC4	2.53	inactive
4	DEPDC4	-0.21	inactive
5	FKRP	0.46	inactive
6	FKRP	0.49	inactive
7	FKRP	0.29	inactive
8	FKRP	1.88	inactive
9	ZBED10P	-0.47	inactive
10	ZBED10P	-0.02	inactive
11	ZBED10P	0.37	inactive
12	ZBED10P	0.51	inactive
13	MNMIP1	-0.4	inactive
14	MNMIP1	0.83	inactive
15	MNMIP1	-0.09	inactive
16	MNMIP1	-0.59	inactive
17	PRELID1	0.35	inactive
18	PRELID1	1.33	inactive
19	PRELID1	0.01	inactive
20	PRELID1	1.45	inactive
21	SAXO5	-1.14	inactive
22	SAXO5	-1.55	active
23	SAXO5	-1.69	active
24	SAXO5	-1.37	inactive
25	CACYBP	0.36	inactive
26	CACYBP	1.03	inactive
27	CACYBP	0.26	inactive
28	CACYBP	1.22	inactive
29	C1GALT1	-0.25	inactive
30	C1GALT1	-0.08	inactive
31	C1GALT1	-0.16	inactive
32	C1GALT1	-1	inactive
33	RNF130	-0.59	inactive
34	RNF130	1.83	inactive
35	RNF130	1.08	inactive
36	RNF130	0.32	inactive
37	LYRM7	0.36	inactive
38	LYRM7	-0.88	inactive
39	LYRM7	-0.12	inactive
40	LYRM7	1.14	inactive
41	PFKFB2	0.17	inactive
42	PFKFB2	0.53	inactive
43	PFKFB2	0.44	inactive
44	PFKFB2	0.91	inactive
45	CSRNP1	-0.1	inactive
46	CSRNP1	-0.76	inactive
47	CSRNP1	-0.54	inactive
48	CSRNP1	0.35	inactive
49	RCAN3	0.06	inactive
50	RCAN3	1	inactive
51	RCAN3	-0.18	inactive
52	RCAN3	0.39	inactive
53	SENP1	-0.09	inactive
54	SENP1	0.19	inactive
55	SENP1	0.26	inactive
56	SENP1	0.32	inactive
57	FBXW4	0.12	inactive
58	FBXW4	0.97	inactive
59	FBXW4	2.98	active
60	FBXW4	-0.75	inactive
61	PDE8B	-0.29	inactive
62	PDE8B	0.26	inactive
63	PDE8B	-0.34	inactive
64	PDE8B	0.15	inactive
65	CDH4	0.21	inactive
66	CDH4	-0.2	inactive
67	CDH4	-0.11	inactive
68	CDH4	0.06	inactive
69	KIR2DS3	-0.97	inactive
70	KIR2DS3	-1.01	inactive
71	KIR2DS3	-1.08	inactive
72	ZNF484	-0.58	inactive
73	ZNF484	-0.97	inactive
74	ZNF484	-0.55	inactive
75	ZNF484	-0.07	inactive
76	KIR3DL2	-0.67	inactive
77	KIR3DL2	0.07	inactive
78	KIR3DL2	-0.53	inactive
79	KIR3DL2	-0.44	inactive
80	SULT1C3	-0.04	inactive
81	SULT1C3	0.89	inactive
82	SULT1C3	0.91	inactive
83	SULT1C3	1.06	inactive
84	MAP2K5	4.89	active
85	MAP2K5	2.59	inactive
86	MAP2K5	1.1	inactive
87	MAP2K5	2.49	inactive
88	NIBAN3	1.41	inactive
89	NIBAN3	2.04	inactive
90	NIBAN3	0.67	inactive
91	NIBAN3	1.75	inactive
92	MTREX	2.43	inactive
93	MTREX	1.7	inactive
94	MTREX	0.89	inactive
95	MTREX	1.81	inactive
96	WDR38	3.85	active
97	WDR38	-0.03	inactive
98	WDR38	0.94	inactive
99	WDR38	0.6	inactive
100	FADS6	-0.96	inactive
101	FADS6	0.12	inactive
102	FADS6	-0.37	inactive
103	FADS6	-0.28	inactive
104	PKD1L3	0.41	inactive
105	PKD1L3	0.04	inactive
106	PKD1L3	1.04	inactive
107	PKD1L3	-0.38	inactive
108	BEST4	-0.49	inactive
109	BEST4	0.13	inactive
110	BEST4	-1.08	inactive
111	BEST4	-0.34	inactive
